The text below walks through data of PMC3103430, “RecA Proteins from Deinococcus geothermalis and Deinococcus murrayi - Cloning, Purification and Biochemical Characterisation” (BMC Molecular Biology, 2011).

The target in data set [1] is DmuRecA (Deinococcus murrayi DSM 11303) (UniProt E7CG23). As to the kind of experiment: EMSA. Conditions: ATPgS + ATP, 20 mM potassium phosphate pH 7.5, 0-10 mM MgCl2, 110 uM ATPgS + 300 uM ATP (ssDNA, 9 uM RecA) or 180 uM ATPgS + 500 uM ATP (dsDNA, 12 uM RecA), recombinant protein, residues 1-359. A general note: A gel shift assay detects complexes by their altered migration in electrophoresis.

For data set [2], the target named is DgeRecA (Deinococcus geothermalis DSM 11302) (UniProt Q1IWF2). As to the kind of experiment: EMSA. Conditions: ATPgS + ATP, 20 mM potassium phosphate pH 7.5, 0-10 mM MgCl2, 110 uM ATPgS + 300 uM ATP (ssDNA, 9 uM RecA) or 180 uM ATPgS + 500 uM ATP (dsDNA, 12 uM RecA), recombinant protein, residues 1-358.
The target in data set [3] is DmuRecA (Deinococcus murrayi DSM 11303) (UniProt E7CG23). The data set is described as follows: competition with a labelled probe. Conditions: with oligo(dT)35 in same tube, 0 or 10 mM Mg2+, ATPgS + ATP; 20 mM potassium phosphate pH 7.5, 0-10 mM MgCl2, 110 uM ATPgS + 300 uM ATP (ssDNA, 9 uM RecA) or 180 uM ATPgS + 500 uM ATP (dsDNA, 12 uM RecA); recombinant protein; residues 1-359; probe letters rebuilt from the primers and the genome.

The target in data set [4] is DgeRecA (Deinococcus geothermalis DSM 11302) (UniProt Q1IWF2). As to the kind of experiment: competition with a labelled probe. Conditions: with oligo(dT)35 in same tube, 0 or 10 mM Mg2+, ATPgS + ATP; 20 mM potassium phosphate pH 7.5, 0-10 mM MgCl2, 110 uM ATPgS + 300 uM ATP (ssDNA, 9 uM RecA) or 180 uM ATPgS + 500 uM ATP (dsDNA, 12 uM RecA); recombinant protein; residues 1-358; probe letters rebuilt from the primers and the genome.

[5] abbreviates: no Mg2+, probe letters rebuilt from the primers and the genome.
The mark [6] stands for this setting: protein preincubated 10 s at 80 C, assayed at 37 C with 10 mM Mg2+, label: 5'-fluorescein, single-stranded DNA.

For part of these data: A negative result means that nothing was seen under these conditions. For part of these data: At least one verdict was read from the data and is not stated in words by the source. The exact form of at least one protein or probe is not confirmed. Weaker means in comparison with the reference protein, sequence or condition of that experiment.

As to “GGACAAGGTCGCTGAAGCCTTCGGGAAGCTGACCACAGACCCGACGTCGGGGCTGACGGCGATGGCTCGCCAGTTCCATAACGTGTCGGCGGAGCAGATTGCGTATGTTGCTCAGTTGCAGCGTTCCGGCGATGAAGCCGGGGCATTGCAGGCGGCGAACGAGGCCGCAACGAAAGGGTTTGATGACCAGACCCGCCGCCTGAAAGAGAACATGGGCACGCTGGAGACCTGGGCAGACAGGACTGCGCGGGCATTCAAATCCATGTGGGATGCGGTGCTGGATATTGGTCGTCCTGATACCGCGCAGGAGATGCTGATTAAGGCAGAGGCTGCGTATAAGAAAGCAGACGACATCTGGAATCTGCGCAAGGATGATTATTTTGTTAACGATGAAGCGCGGGCGCGTTACTGGGATGATCGTGAAAAGGCCCGTCTTGCGCTTGAAGCCGCCCGAAAGAAGGCTGAGCAGCAGACTCAACAGGACAAAAATGCGCAGCAGCAGAGCGATACCGAAGCGTCACGGCTGAAATATACCGAAGAGGCGCAGAAGGCTTACGAACGGCTGCAGACGCCGCTGGAGAAATATACCGCCCGTCAGGA (double strand) [600 bp PCR product of lambda DNA]”, the binding result was “binds” in data set [1] (10 mM Mg2+, more efficient than DgeRecA, probe letters rebuilt from the primers and the genome); “binds more weakly” in data set [1] (setting [5]); “binds” in data set [2] (10 mM Mg2+, less efficient than DmuRecA, probe letters rebuilt from the primers and the genome); “binds more weakly” in data set [2] (setting [5]); “binds more weakly” in data set [3]; “binds more weakly” in data set [4].
Regarding “TTTTTTTTTTTTTTTTTTTTTTTTTTTTTTTTTTT [oligo(dT)35]”, the binding result is given as “binds more weakly” in data set [1] (10 mM Mg2+, 54.5 C (very slight), label: 5'-fluorescein, single-stranded DNA); “no binding” in data set [1] (10 mM Mg2+, above 54.5 C (55.6-65 C), label: 5'-fluorescein, single-stranded DNA); “no binding” in data set [1] (setting [6]); “binds more weakly” in data set [2] (10 mM Mg2+, 58 C (very slight), label: 5'-fluorescein, single-stranded DNA); “no binding” in data set [2] (10 mM Mg2+, above 58 C (59.4-75 C), label: 5'-fluorescein, single-stranded DNA); “no binding” in data set [2] (setting [6]).
